Source: PubChem BioAssay AID2685 (National Center for Advancing Translational Sciences (NCATS), 2010)
The list shows a part of the results. These are further read-outs of the screen, such as a control signal, another cell line or another target. No call is given for them. The list favours compounds with an active or inconclusive main result. Words in brackets tell the shape of the fitted curve; partial curves, single points and poor fits give uncertain potencies.

Experiment: qHTS Assay for Lipid Storage Modulators in Drosophila S3 Cells;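 on cell number change: cells counted by Cell Tracker Red CMTPX staining in the red channel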
Details: BODIPY lipid droplet fluorescence, 18-24 h; for cell number change: measured here: cell count max response, cells fed with added oleic acid
Procedure, shortened: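 Drosophila S3 cells loaded with oleic acid (400 uM, as added) and compounds at several concentrations; lipid droplets imaged by 488-nm laser-scanning cytometry, 500–530 nm intensity and object ratio to cell channel. Percent activity normalized to 20 uM Triacsin C.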

[1] = measured here: cell number channel AC50, cells fed with added oleic acid
[2] = measured here: lipid fluorescence (Fed channel) AC50, cells fed with added oleic acid

Structure (SMILES)	cell number change [%]	AC50 [1]	AC50 [2]
O=S(=O)(c1ccc(F)cc1)N1CCN(c2nc(-c3cccnc3)nc3ccccc23)CC1	3.92	0.00411 µM [rising, full curve, poor fit]	0.366 µM [rising, partial curve, poor fit]
O=C(CN=C1NS(=O)(=O)c2ccccc21)OCC(=O)c1cc(F)ccc1F	7.22	–	–
O=C(c1ccc(Cl)cc1)N1CCCC(C(=O)N2CCc3ccccc3C2)C1 (configuration not stated)	–	0.146 µM [rising, partial curve, poor fit]	–
O=C(NCC1CCCO1)c1ccccc1OCc1ccc(F)cc1 (configuration not stated)	-50	6.51 µM [falling, partial curve]	–
Cc1ccc(Nc2nc3nonc3[nH]c2=O)cc1Cl	-44.6	18.4 µM [falling, partial curve, poor fit]	8.2 µM [falling, partial curve]
COc1ccc(CC(=O)NNC(=O)c2c(-c3ccccc3Cl)noc2C)cc1OC	5.98	0.82 µM [falling, full curve, poor fit]	0.731 µM [falling, full curve]
COc1ccc(N2CCN(S(=O)(=O)CC34CCC(CC3=O)C4(C)C)CC2)cc1 (configuration not stated)	-34.9	20.6 µM [falling, single point]	–
N#Cc1c(N)c(C(=O)c2ccccc2)n2c1CCC2	-9.4	6.51 µM [falling, single point]	–
Cc1cc(N2CCN(S(=O)(=O)c3ccc(Cl)c(Cl)c3)CC2)c2ccccc2n1	41.1	16.4 µM [rising, single point]	0.00731 µM [falling, full curve, poor fit]
Cc1cc(C)c(S(=O)(=O)N2CCCC(C(=O)NCCC3=CCCCC3)C2)c(C)c1 (configuration not stated)	-24.6	–	0.366 µM [falling, full curve]
Cc1ccccc1CN(c1ccc(C(=O)NCCC2=CCCCC2)cc1)S(C)(=O)=O	2.26	–	29.1 µM [falling, single point]
O=C(CCc1nnc2ccc(NCc3ccccc3)nn12)NC1CCCCC1	-28.3	0.058 µM [falling, full curve, poor fit]	5.17 µM [rising, full curve]
COc1c(Br)cc(Br)cc1/C=N/NC(=O)c1cccnc1	15.4	–	29.1 µM [falling, single point]
O=C(Nc1nc(-c2ccccc2)cs1)Nc1ccc(F)cc1F	-23.8	–	25.9 µM [falling, single point]
COc1ccc(NCc2nnc(SCC(=O)Nc3cc(C)cc(C)c3)o2)cc1	-6.41	–	–

Look-ups from the list.
Entry of `COc1ccc(CC(=O)NNC(=O)c2c(-c3ccccc3Cl)noc2C)cc1OC` under cell number change [%]: 5.98
Entry of `COc1ccc(N2CCN(S(=O)(=O)CC34CCC(CC3=O)C4(C)C)CC2)cc1` (configuration not stated) under AC50 [1]: 20.6 µM [falling, single point]
